Measured values published in patent US20150136150A1, “DURABLE SKIN MARKING COMPOSITIONS” (OP-MARKS, INC., priority 2011, published 2015).
At least one structure is not confirmed: it was looked up by name or label, or the drawing left a doubt.

Tests used:
[1] = Solvent miscibility and compatibility with ethoxyethyl cyanoacrylate; assay type: physicochemical; settings: summary code E + number
Description: (§1) Next, the solvents were tested for miscibility and compatibility with cyanoacrylate esters. Briefly, beginning with 3 ml samples each of butyl cyanoacrylate (BCA), octyl cyanoacrylate (OCA) and ethoxyethyl cyanoacrylate (EECA), 3 ml of each solvent was added drop-wise to each cyanoacrylate sample and agitated to aid mixing. Observations of the samples were taken immediately and then at regular intervals over 7 days. […] The remaining 10 solvents were ranked according to their compatibility with the cyanoacrylate esters based primarily on their compatibility with BCA over 7 days, secondarily on their compatibility with OCA, and finally on their miscibility with EECA.

[2] = Solvent compatibility with viscosity-increasing polymer, viscosity of solution: MMA; assay type: physicochemical; design: unit not given here; settings: polymer added at 5% by weight, up to 3 days agitation
[3] = Solvent miscibility and compatibility with octyl cyanoacrylate; assay type: physicochemical; design: key to OCA compatibility, 7 Day: V = slightly viscous; VV = viscous; VVV = very viscous; Lyr = layers; Pl = pale; Lt = light; Y = yellow; RX = reacts; Gry = grey; Brn = brown; Blk = black
Description: as §1

[4] = Solvent compatibility with viscosity-increasing polymer, viscosity of solution: CAB; assay type: physicochemical; design: unit not given here; settings: polymer added at 5% by weight, up to 3 days agitation
[5] = Solvent compatibility with viscosity-increasing polymer, viscosity of solution: ABS; assay type: physicochemical; settings: polymer added at 5% by weight, up to 3 days agitation
[6] = relative volatility compared to butyl acetate; cited from earlier work

Compound	CAC (cyanoacrylate compatibility), EECA code [1]	Viscosity of solution with MMA [2]	OCA compatibility, 7 Day ([3]; 3 ml solvent + 3 ml OCA, 7 Day)	CAC (cyanoacrylate compatibility), OCA code ([3]; summary code O + number)	Viscosity of solution with CAB [4]	Viscosity of solution with ABS [5]	VL (volatility) [6]
CC(=O)OC(C)C [t-propyl acetate]	E7	N	VV	O2	3.1	N	5
CCCCOCCO [Butoxyethanol]							0.07
